Experimental data published in the supplement of paper PMC10849652.
The other results are listed elsewhere or left out.

The chains behind the UniProt entries cited, without tags or fusion partners. Where a name states a change or a piece, a line headed by the entry shows the natural chain unless it says otherwise.
UniProt Q9UKJ5: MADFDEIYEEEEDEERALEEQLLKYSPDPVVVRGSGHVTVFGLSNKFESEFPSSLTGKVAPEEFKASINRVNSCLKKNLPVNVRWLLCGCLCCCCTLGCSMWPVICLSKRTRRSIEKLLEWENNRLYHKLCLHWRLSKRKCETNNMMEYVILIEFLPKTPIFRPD
UniProt Q9UEE9, whole entry, looked up: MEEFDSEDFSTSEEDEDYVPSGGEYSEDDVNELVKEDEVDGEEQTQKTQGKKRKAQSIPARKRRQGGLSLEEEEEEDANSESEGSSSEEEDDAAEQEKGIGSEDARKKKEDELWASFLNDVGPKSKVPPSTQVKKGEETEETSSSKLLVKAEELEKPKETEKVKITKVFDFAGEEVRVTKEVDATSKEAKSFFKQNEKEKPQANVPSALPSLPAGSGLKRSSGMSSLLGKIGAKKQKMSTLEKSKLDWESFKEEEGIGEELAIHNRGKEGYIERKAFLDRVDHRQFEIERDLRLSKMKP
UniProt O43633: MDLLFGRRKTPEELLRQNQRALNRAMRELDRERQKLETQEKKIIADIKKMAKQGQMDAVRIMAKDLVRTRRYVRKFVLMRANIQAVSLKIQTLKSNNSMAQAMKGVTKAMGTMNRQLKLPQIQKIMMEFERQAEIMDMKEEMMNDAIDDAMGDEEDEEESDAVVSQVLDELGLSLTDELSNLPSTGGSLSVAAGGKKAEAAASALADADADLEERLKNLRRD
UniProt Q96JB5: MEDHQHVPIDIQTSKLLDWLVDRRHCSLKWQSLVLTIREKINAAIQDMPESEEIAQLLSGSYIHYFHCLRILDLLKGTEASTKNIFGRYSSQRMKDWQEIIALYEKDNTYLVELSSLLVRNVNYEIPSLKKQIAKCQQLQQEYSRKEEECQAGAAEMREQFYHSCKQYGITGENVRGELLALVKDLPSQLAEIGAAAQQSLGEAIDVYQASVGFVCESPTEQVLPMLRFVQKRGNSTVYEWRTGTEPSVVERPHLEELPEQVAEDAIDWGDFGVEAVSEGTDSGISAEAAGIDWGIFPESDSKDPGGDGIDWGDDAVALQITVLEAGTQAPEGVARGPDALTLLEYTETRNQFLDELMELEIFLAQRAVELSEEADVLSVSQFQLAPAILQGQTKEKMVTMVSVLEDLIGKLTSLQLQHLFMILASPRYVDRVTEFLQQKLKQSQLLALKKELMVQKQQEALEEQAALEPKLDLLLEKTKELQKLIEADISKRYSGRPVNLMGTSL
UniProt P35790, whole entry, looked up: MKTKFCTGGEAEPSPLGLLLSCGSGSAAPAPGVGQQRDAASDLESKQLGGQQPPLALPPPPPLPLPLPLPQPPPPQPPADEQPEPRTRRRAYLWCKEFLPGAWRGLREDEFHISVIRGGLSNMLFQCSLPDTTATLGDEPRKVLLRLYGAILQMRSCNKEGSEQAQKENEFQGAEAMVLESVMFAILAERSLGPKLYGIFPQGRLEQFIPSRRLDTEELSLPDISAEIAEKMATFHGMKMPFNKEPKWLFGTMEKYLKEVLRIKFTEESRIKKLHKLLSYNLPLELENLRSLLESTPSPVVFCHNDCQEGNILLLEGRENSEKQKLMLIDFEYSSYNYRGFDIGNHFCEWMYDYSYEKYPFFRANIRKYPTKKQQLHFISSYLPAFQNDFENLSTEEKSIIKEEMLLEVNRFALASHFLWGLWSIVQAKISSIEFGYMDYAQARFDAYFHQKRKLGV
UniProt Q5SW79: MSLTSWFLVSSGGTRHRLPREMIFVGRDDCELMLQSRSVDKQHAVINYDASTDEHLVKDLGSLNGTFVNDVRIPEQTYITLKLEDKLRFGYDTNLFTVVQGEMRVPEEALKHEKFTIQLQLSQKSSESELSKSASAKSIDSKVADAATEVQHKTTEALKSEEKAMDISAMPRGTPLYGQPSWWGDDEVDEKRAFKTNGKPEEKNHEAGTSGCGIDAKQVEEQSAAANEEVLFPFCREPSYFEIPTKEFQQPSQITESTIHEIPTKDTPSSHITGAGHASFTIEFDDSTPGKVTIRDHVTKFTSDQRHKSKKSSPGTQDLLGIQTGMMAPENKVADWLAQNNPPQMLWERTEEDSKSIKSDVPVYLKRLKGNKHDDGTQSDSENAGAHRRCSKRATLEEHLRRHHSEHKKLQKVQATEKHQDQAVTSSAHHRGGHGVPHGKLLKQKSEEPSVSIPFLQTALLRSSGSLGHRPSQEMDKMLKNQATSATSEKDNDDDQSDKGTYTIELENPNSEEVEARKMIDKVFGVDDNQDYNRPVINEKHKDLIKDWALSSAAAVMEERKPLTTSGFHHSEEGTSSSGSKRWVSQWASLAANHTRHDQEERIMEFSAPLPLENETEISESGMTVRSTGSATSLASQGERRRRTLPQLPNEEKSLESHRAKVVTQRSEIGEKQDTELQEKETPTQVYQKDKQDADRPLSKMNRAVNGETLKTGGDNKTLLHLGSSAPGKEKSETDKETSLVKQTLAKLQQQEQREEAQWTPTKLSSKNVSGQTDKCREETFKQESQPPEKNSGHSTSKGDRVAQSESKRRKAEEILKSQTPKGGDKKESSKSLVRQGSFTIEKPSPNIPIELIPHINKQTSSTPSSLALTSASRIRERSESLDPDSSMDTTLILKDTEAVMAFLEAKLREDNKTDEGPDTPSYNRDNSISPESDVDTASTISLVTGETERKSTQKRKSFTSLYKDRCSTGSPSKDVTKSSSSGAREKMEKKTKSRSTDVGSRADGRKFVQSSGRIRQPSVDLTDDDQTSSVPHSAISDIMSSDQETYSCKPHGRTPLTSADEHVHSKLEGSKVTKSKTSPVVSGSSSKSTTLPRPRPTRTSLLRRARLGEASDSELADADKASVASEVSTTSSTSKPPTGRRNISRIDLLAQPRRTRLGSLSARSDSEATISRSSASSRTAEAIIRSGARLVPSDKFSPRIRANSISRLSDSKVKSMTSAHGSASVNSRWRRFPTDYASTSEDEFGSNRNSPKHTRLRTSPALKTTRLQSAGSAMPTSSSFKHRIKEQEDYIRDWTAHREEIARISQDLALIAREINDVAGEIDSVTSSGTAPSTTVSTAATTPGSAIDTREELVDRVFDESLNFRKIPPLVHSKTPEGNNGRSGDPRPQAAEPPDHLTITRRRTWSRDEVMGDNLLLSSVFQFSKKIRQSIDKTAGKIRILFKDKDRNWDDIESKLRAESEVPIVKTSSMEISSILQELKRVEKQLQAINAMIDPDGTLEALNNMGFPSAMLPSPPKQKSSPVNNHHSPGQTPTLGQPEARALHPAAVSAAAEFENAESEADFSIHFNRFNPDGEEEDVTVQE
UniProt Q9NX63: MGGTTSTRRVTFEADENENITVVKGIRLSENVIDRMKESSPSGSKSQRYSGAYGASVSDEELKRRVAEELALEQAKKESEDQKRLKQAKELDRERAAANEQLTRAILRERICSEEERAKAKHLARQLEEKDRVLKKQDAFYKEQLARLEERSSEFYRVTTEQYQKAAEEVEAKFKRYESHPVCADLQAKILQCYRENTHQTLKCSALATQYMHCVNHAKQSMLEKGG
UniProt Q14004, whole entry, looked up: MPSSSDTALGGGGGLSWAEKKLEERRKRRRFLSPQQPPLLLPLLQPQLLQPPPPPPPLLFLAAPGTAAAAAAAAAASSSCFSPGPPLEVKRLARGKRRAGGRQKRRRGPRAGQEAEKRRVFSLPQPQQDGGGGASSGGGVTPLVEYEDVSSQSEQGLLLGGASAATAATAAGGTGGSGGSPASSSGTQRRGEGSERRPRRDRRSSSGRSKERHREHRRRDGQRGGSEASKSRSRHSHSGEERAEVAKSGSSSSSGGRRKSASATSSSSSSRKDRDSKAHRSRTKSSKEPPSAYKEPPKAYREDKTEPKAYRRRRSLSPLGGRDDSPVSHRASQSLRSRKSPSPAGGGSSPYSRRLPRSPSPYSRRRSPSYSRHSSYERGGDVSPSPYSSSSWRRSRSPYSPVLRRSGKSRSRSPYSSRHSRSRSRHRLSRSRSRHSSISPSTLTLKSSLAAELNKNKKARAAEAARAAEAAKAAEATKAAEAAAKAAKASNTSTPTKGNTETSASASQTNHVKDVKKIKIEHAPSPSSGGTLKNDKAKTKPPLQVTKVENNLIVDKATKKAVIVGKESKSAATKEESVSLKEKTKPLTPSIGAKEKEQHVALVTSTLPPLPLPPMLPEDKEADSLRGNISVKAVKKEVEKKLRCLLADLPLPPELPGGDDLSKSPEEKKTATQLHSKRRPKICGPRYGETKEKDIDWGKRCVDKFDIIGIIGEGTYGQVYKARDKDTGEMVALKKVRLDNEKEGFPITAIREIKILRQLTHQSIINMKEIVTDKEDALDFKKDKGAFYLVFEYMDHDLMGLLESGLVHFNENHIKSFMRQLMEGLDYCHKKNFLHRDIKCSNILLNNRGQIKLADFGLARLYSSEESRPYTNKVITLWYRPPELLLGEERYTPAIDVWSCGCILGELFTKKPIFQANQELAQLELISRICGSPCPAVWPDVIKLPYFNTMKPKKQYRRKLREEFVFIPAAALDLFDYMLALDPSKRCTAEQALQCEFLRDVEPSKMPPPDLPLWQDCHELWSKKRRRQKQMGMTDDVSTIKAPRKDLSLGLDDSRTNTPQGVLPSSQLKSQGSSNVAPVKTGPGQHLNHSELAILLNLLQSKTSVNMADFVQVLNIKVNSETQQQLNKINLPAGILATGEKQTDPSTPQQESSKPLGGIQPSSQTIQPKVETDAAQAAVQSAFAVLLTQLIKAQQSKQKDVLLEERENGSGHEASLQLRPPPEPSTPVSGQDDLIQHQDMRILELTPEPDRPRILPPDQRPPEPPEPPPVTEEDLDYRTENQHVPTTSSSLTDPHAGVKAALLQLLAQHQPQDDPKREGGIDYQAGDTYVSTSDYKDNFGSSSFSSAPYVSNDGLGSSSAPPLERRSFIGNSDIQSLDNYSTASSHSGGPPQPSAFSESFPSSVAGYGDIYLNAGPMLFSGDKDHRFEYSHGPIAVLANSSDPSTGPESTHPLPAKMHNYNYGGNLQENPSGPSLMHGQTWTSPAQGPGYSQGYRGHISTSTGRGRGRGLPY
UniProt Q9Y6A4: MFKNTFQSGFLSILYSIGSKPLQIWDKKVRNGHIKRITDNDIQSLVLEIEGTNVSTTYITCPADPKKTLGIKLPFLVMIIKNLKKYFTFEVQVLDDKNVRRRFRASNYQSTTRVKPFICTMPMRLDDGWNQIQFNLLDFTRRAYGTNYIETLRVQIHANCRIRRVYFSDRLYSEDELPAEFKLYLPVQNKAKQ
UniProt Q9BY43: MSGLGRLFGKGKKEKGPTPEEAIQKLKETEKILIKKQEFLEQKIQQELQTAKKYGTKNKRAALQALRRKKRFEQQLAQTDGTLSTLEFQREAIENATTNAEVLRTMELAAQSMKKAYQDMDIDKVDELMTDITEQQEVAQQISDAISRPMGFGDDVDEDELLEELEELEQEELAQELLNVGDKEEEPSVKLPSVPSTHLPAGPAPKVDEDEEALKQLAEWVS
UniProt Q9Y3E7, whole entry, looked up: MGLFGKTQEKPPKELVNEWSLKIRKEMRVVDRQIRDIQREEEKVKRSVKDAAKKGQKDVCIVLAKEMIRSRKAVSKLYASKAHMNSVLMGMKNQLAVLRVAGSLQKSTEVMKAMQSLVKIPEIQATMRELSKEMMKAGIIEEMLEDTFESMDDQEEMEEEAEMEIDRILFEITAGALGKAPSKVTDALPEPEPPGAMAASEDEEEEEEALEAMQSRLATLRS
UniProt P57076: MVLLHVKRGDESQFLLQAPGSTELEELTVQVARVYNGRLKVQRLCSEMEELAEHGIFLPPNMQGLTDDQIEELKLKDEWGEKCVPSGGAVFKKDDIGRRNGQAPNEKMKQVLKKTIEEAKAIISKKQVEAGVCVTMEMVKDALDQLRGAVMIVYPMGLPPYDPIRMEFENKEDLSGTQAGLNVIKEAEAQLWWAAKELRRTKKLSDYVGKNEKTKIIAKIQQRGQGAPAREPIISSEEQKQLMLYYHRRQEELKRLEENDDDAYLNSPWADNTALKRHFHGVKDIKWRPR
UniProt P41208: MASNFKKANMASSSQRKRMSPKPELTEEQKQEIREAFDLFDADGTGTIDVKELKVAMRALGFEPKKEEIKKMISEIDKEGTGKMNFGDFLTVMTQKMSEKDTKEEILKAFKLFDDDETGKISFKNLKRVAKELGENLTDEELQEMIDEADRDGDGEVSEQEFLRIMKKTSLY
UniProt Q8WUX2: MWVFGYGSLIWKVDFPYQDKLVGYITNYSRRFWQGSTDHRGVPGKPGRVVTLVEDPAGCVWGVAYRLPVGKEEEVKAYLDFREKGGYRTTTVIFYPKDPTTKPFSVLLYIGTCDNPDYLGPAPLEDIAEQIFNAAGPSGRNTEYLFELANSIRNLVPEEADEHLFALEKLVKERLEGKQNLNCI
UniProt O15182: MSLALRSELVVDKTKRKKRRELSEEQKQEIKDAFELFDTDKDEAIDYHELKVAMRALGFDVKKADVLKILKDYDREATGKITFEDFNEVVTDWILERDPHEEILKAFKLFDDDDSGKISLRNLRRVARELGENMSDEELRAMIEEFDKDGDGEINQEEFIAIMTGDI

Compound: Cc1ccc(NC(=O)c2ccc(CN3CC[C@H](N(C)C)C3)c(C(F)(F)F)c2)cc1Nc1nccc(-c2cncnc2)n1 [bafetinib]
Test: log2 fold change, soluble protein after heating vs DMSO (PISA); higher = thermal stabilisation; K562 cells, 10 uM, 30 min; active = over 0.2 and 3.5 SD of the protein, either way, in both replicates (recomputed)
In short: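 K562 cells at 2×10^6 cells/mL were treated with 10 μM compound for 30 min. Aliquots were heated for 3 min across 48°C-58°C, pooled, and extracted in PBS with 0.5% NP-40 at 4°C; soluble protein was the supernatant after 21,000xg for 90 min. Soluble protein was quantified by TMTpro 16plex LC-MS/MS with channel sums equalised, and reported as log2 fold change in thermal stability against DMSO controls, with values from duplicates.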

log2 fold change, inactive:
CHIC2 (UniProt Q9UKJ5) 0.173
CFDP1 (UniProt Q9UEE9) -0.071
CHMP2A (UniProt O43633) -0.013
CHD4 isoform 2 (UniProt Q14839) 0.068
CEP76 (UniProt Q8TAP6) -0.004
CDK5RAP3 isoform 4 (UniProt Q96JB5) 0.039
CHKA (UniProt P35790) 0.123
CDC73 (UniProt Q6P1J9) 0.008
CEP170 isoform 3 (UniProt Q5SW79) -0.191
CHCHD3 (UniProt Q9NX63) -0.057
CDKAL1 (UniProt Q5VV42) 0.036
CDK13 (UniProt Q14004) 0.092
CFAP20 (UniProt Q9Y6A4) 0.048
CHD6 (UniProt Q8TD26) -0.038
CHMP4A isoform 2 (UniProt Q9BY43) -0.023
CHMP4B (UniProt Q9H444) -0.078
CDK11B (UniProt P21127) 0.027
CHMP3 (UniProt Q9Y3E7) -0.138
CFAP298 (UniProt P57076) 0.057
CETN2 (UniProt P41208) -0.029
CHAC2 (UniProt Q8WUX2) -0.052
CETN3 (UniProt O15182) -0.052
CHD3 isoform 3 (UniProt Q12873) 0.01

No new results follow: an excerpt of the list.
log2 fold change, inactive:
CDKAL1 (UniProt Q5VV42) 0.036
CDK13 (UniProt Q14004) 0.092
CFAP20 (UniProt Q9Y6A4) 0.048
CHD6 (UniProt Q8TD26) -0.038
CHMP4A isoform 2 (UniProt Q9BY43) -0.023
CHMP4B (UniProt Q9H444) -0.078
